Patent US20200093807A1, “NEW USE OF RIFAMYCIN-NITROIMIDAZOLE CONJUGATE MOLECULE” (TenNor Therapeutics Limited, priority 2017, published 2020)
Values after ≈ are worked out from the molar mass of the structure shown.

How the values were obtained:
Experiment in all cases: MIC, anaerobic agar dilution (CLSI)
Assay type in all cases: cell-based
[1] = test system: Anaerococcus (Anaerococcus(prevotii)) ATCC 9321; conditions: 35° C., 42-48 hours
[2] = test system: Bacteroides fragilis (QC) ATCC 25285; conditions: ATCC25285, 35° C., 42-48 hours
[3] = test system: Bacteroides fragilis (MET^R) MMX 3387; conditions: 35° C., 42-48 hours
[4] = test system: Bacteroides gracilis ATCC 33236; conditions: Campylobacter gracilis, ATCC33236, 35° C., 42-48 hours
[5] = test system: Eubacterium (rectale) ATCC 33656; conditions: Agathobacter rectalis, ATCC33656, 35° C., 42-48 hours
[6] = test system: Lactobacillus gasseri ATCC 33323; conditions: ATCC33323, 35° C., 42-48 hours
[7] = test system: Lactobacillus jensenii ATCC 25258; conditions: ATCC25258, 35° C., 42-48 hours
[8] = test system: Peptostreptococcus (magnus) ATCC 14956; conditions: Finegoldia magna, ATCC14956, 35° C., 42-48 hours
[9] = test system: Veionella parvula ATCC 17745; conditions: 35° C., 42-48 hours

In the case of `CCC[C@@H]1C[C@@H](C(=O)N[C@@H]([C@H]2O[C@H](SC)[C@H](O)[C@@H](O)[C@H]2O)[C@H](C)Cl)N(C)C1` [Clindamycin], the MIC [1] is reported as 0.06 µg/mL (≈ 0.141 µM), the MIC [2] is reported as 1 µg/mL (≈ 2.35 µM) and the MIC [3] is reported as 2 µg/mL (≈ 4.71 µM). For the same compound, the MIC [4] was 0.06 µg/mL (≈ 0.141 µM), the MIC [5] was 0.008 µg/mL (≈ 0.0188 µM) and the MIC [6] was 4 µg/mL (≈ 9.41 µM). For the same compound, the MIC [7] was 0.5 µg/mL (≈ 1.18 µM), the MIC [8] was 1 µg/mL (≈ 2.35 µM) and the MIC [9] was 32 µg/mL (≈ 75.3 µM).
